Results from article PMC6127284.
No constants are given. Whether binding was seen depends on the method and setting. For some of these results: Binding seen in cells or lysates may run through a third protein. Some results given as binding are weak or reduced against the parent protein; the word gives no strength. For some of these results: Sequences can lack the tags named with a protein. Blank lines part the entries; values can stand above or below the molecule they belong to.

The chains behind the UniProt entries cited, without tags or fusion partners. Residues count along the entry.
UniProt Q01097, residues 27-1482: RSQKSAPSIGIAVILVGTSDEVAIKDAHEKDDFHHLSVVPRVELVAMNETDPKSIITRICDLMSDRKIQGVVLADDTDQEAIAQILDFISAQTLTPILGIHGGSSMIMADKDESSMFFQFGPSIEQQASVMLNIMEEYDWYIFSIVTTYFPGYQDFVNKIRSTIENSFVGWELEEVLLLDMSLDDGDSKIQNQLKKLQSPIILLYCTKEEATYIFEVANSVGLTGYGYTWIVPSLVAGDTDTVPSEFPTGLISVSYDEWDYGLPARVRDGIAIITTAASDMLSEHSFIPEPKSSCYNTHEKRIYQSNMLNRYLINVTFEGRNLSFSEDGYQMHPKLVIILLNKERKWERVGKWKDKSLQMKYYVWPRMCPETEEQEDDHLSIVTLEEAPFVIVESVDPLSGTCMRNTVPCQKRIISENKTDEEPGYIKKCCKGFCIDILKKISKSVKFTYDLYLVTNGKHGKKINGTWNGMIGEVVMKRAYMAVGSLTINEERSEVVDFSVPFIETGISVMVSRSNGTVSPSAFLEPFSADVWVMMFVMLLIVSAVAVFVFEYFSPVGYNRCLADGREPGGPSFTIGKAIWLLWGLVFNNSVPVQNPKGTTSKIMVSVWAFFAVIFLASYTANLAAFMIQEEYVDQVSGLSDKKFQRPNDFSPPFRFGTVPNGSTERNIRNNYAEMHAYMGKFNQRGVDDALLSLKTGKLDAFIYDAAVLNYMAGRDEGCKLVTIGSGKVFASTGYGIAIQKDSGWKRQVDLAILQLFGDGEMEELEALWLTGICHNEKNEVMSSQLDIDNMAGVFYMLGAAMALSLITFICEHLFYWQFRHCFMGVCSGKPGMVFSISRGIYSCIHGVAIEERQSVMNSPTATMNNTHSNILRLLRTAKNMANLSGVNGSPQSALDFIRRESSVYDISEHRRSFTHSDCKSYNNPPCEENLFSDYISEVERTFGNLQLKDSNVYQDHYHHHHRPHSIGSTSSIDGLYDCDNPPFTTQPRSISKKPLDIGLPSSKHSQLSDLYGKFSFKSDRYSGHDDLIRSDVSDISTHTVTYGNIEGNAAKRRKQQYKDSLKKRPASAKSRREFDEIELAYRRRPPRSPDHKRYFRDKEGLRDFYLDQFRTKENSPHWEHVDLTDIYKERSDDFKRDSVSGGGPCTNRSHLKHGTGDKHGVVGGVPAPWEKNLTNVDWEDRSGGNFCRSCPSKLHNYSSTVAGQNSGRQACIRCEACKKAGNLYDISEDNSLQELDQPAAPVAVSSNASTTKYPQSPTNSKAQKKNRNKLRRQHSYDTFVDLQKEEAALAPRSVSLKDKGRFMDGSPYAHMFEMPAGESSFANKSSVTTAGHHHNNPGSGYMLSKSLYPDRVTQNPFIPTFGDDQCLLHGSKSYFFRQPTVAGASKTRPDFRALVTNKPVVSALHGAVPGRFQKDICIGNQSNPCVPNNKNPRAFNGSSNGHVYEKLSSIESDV

What was measured:
[1] = target: T1, Trak1 (mouse (endogenous in adult mouse brain)) (UniProt Q6PD31); experiment: co-IP; Trak1 immunoprecipitated from adult mouse brain synaptosome and light membrane fractions; endogenous proteins
T1 sequence: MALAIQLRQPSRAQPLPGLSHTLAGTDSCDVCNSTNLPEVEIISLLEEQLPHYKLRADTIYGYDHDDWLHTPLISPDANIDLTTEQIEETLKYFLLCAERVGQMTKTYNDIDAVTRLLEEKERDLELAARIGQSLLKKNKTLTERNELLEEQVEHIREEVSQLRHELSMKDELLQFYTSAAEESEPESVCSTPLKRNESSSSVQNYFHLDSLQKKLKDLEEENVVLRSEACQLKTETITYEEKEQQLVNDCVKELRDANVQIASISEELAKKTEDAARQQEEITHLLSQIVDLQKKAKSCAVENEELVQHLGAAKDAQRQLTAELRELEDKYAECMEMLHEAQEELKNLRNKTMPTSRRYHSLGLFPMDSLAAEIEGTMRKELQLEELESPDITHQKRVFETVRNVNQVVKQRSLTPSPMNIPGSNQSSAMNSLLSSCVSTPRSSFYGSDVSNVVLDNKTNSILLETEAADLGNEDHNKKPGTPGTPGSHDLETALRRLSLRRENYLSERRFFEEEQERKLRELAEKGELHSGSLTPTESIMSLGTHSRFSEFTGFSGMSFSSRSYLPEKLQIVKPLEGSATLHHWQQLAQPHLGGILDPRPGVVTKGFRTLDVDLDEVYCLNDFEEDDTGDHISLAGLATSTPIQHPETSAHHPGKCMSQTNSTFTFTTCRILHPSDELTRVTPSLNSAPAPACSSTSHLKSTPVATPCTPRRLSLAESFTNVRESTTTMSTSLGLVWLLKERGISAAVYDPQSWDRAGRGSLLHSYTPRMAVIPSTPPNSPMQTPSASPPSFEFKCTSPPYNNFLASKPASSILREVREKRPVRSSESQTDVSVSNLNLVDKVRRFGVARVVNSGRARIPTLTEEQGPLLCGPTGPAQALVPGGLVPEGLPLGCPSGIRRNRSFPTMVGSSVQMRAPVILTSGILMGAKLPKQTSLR

HA-tagged GluN1 = HA-tagged GluN1 (UniProt Q05586); experiment: co-IP; tagged proteins co-expressed in transfected COS7 cells, immunoprecipitated from cell lysates
[2] = target: GluN1 cytoplasmic tail (C0-C1-C2) peptide array, peptide spots 1–16 (amino acids 831–930) (UniProt Q05586); experiment: peptide or protein array; peptide array of the GluN1 cytoplasmic tail (C0-C1-C2), each spot a single peptide, probed with FLAG-DISC1

- binding [1]: binds
Molecule: GluN2B (from UniProt Q01097 27-1482) (receptor)

- binding (HA-tagged GluN1): binds
- binding [2]: binds
B1: FLAG-DISC1 (protein, UniProt Q9NRI5 1-854)
chain: MPGGGPQGAPAAAGGGGVSHRAGSRDCLPPAACFRRRRLARRPGYMRSSTGPGIGFLSPAVGTLFRFPGGVSGEESHHSESRARQCGLDSRGLLVRSPVSKSAAAPTVTSVRGTSAHFGIQLRGGTRLPDRLSWPCGPGSAGWQQEFAAMDSSETLDASWEAACSDGARRVRAAGSLPSAELSSNSCSPGCGPEVPPTPPGSHSAFTSSFSFIRLSLGSAGERGEAEGCPPSREAESHCQSPQEMGAKAASLDGPHEDPRCLSRPFSLLATRVSADLAQAARNSSRPERDMHSLPDMDPGSSSSLDPSLAGCGGDGSSGSGDAHSWDTLLRKWEPVLRDCLLRNRRQMEVISLRLKLQKLQEDAVENDDYDKAETLQQRLEDLEQEKISLHFQLPSRQPALSSFLGHLAAQVQAALRRGATQQASGDDTHTPLRMEPRLLEPTAQDSLHVSITRRDWLLQEKQQLQKEIEALQARMFVLEAKDQQLRREIEEQEQQLQWQGCDLTPLVGQLSLGQLQEVSKALQDTLASAGQIPFHAEPPETIRSLQERIKSLNLSLKEITTKVCMSEKFCSTLRKKVNDIETQLPALLEAKMHAISGNHFWTAKDLTEEIRSLTSEREGLEGLLSKLLVLSSRNVKKLGSVKEDYNRLRREVEHQETAYETSVKENTMKYMETLKNKLCSCKCPLLGKVWEADLEACRLLIQSLQLQEARGSLSVEDERQMDDLEGAAPPIPPRLHSEDKRKTPLKVLEEWKTHLIPSLHCAGGEQKEESYILSAELGEKCEDIGKKLLYLEDQLHTAIHSHDEDLIQSLRRELQMVKETLQAMILQLQPAKEAGEREAAASCMTAGVHEAQA

- binding (HA-tagged GluN1): binds
B2: GST-DISC1 amino acids 358–499 (domain or fragment, UniProt Q9NRI5 358-499)
chain: QKLQEDAVENDDYDKAETLQQRLEDLEQEKISLHFQLPSRQPALSSFLGHLAAQVQAALRRGATQQASGDDTHTPLRMEPRLLEPTAQDSLHVSITRRDWLLQEKQQLQKEIEALQARMFVLEAKDQQLRREIEEQEQQLQW
